PubChem BioAssay AID504774, Drosophila RNAi Screening Center | 2011
Test: 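Fly genes whose loss alters survival after alkylation damage to DNA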 (primary screen). Cells: Drosophila Kc167 cells. Knock-down reagent: long dsRNA against Drosophila genes, about 0.25 µg dsRNA per well. Timing: about 6 days: 3 days knock-down, then 3 days with or without MMS. Treatment: methyl methanesulphonate 0.004% (w/v) for 3 days after knock-down. Measurement: 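Viability in wells given MMS, read as ATP luminescence, normalised by quantiles plate by plate and averaged across replicates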. Scale: mean viability with MMS and viability with MMS: higher = more surviving cells after MMS.
In all, the deposit lists about 23,000 reagents; this is a random part of those that have a named target and a result. 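Values are quantile-normalised luminescence on an arbitrary scale; higher means more cells surviving MMS.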 The numbers tell different reagents against one gene apart. A plus sign joins genes that one reagent is predicted to hit.

Target gene | dsRNA no. | mean viability with MMS | viability with MMS, replicate 1 | viability with MMS, replicate 2
slmb | 1 | 3.17e6 | 3.67e6 | 3.69e6
Pcl | 1 | 3.63e6 | 4.09e6 | 4.16e6
ND-51L1 | 1 | 3.60e6 | 3.96e6 | 4.19e6
CG12231 | 1 | 3.49e6 | 3.97e6 | 3.97e6
Gpdh1 | 1 | 3.66e6 | 4.11e6 | 4.22e6
Gpdh1 | 2 | 3.32e6 | 3.86e6 | 3.79e6
CG14613 | 1 | 3.64e6 | 4.20e6 | 4.10e6
CG3769 | 1 | 3.61e6 | 3.97e6 | 4.22e6
Cpr35B | 1 | 3.64e6 | 4.13e6 | 4.10e6
Cpr35B | 2 | 3.78e6 | 4.44e6 | 4.05e6
CG14572 | 1 | 3.67e6 | 4.08e6 | 4.18e6
bon | 1 | 3.63e6 | 4.20e6 | 4.02e6
CG33267 | 1 | 3.54e6 | 4.02e6 | 4.01e6
tsu | 1 | 3.36e6 | 3.87e6 | 3.75e6
CG7120 | 1 | 3.48e6 | 3.89e6 | 4.00e6
CG12986 | 1 | 3.61e6 | 4.12e6 | 4.05e6
eEF1alpha1 | 1 | 3.19e6 | 3.43e6 | 3.83e6
MFS9 | 1 | 3.73e6 | 4.22e6 | 4.17e6
CG7213 | 1 | 3.54e6 | 4.06e6 | 3.97e6
rempA | 1 | 3.54e6 | 4.12e6 | 3.92e6
CG32196 | 1 | 3.63e6 | 4.22e6 | 3.99e6
CG8360 | 1 | 3.73e6 | 3.84e6 | 3.89e6
CG14357 | 1 | 3.29e6 | 3.56e6 | 3.87e6
Hsp70Aa + Hsp70Ab | 1 | 3.34e6 | 3.78e6 | 3.79e6
CG42506 (retired record) + CG43759 | 1 | 3.63e6 | 4.22e6 | 4.05e6
CG42506 (retired record) + CG43759 | 2 | 3.58e6 | 4.11e6 | 4.00e6
PheRS-m | 1 | 3.67e6 | 4.21e6 | 4.13e6
Rbm13 | 1 | 3.35e6 | 3.87e6 | 3.72e6
Mef2 | 1 | 3.51e6 | 4.00e6 | 3.95e6
Sp212 | 1 | 3.50e6 | 3.98e6 | 3.97e6
Pur-alpha | 1 | 3.66e6 | 4.06e6 | 4.22e6

Individual results from the list:
Under “viability with MMS, replicate 2”, CG33267 reads 4.01e6
Cpr35B #1, mean viability with MMS → 3.64e6
Entry for Gpdh1 #2 under “mean viability with MMS”: 3.32e6
Value for PheRS-m under “mean viability with MMS”: 3.67e6
Pur-alpha, viability with MMS, replicate 2 → 4.22e6

The results go on:
Target gene | dsRNA no. | mean viability with MMS | viability with MMS, replicate 1 | viability with MMS, replicate 2
Dgkepsilon | 1 | 3.49e6 | 3.98e6 | 3.90e6
zen2 | 1 | 3.60e6 | 4.20e6 | 3.97e6
Dhps | 1 | 3.32e6 | 3.69e6 | 3.75e6
PrBP | 1 | 3.30e6 | 3.64e6 | 3.78e6
Reph | 1 | 3.82e6 | 4.32e6 | 4.38e6
Reph | 2 | 3.54e6 | 4.05e6 | 3.97e6
IM33 | 1 | 3.75e6 | 4.16e6 | 4.21e6
Mkk4 | 1 | 3.57e6 | 4.02e6 | 4.08e6
Awh | 1 | 3.55e6 | 4.03e6 | 4.01e6
CG1638 | 1 | 3.44e6 | 3.89e6 | 3.92e6
CG30460 | 1 | 3.53e6 | 4.14e6 | 3.87e6
CG30460 | 2 | 2.83e6 | 3.52e6 | 3.52e6
CG30460 | 3 | 3.75e6 | 4.32e6 | 4.19e6
CG34376 | 1 | 3.44e6 | 3.91e6 | 3.91e6
CG34376 | 2 | 3.34e6 | 3.78e6 | 3.83e6
CG34376 | 3 | 3.49e6 | 3.91e6 | 4.01e6
CG34278 | 1 | 3.42e6 | 3.80e6 | 3.97e6
CG13630 | 1 | 3.35e6 | 3.83e6 | 3.80e6
Theg | 1 | 3.36e6 | 3.81e6 | 3.84e6
Der-1 | 1 | 3.56e6 | 4.00e6 | 4.07e6
Fis1 | 1 | 3.69e6 | 4.10e6 | 4.20e6
ReepB | 1 | 3.62e6 | 4.13e6 | 4.09e6
CG14780 | 1 | 3.55e6 | 4.16e6 | 3.91e6
Rpn13 | 1 | 3.45e6 | 3.80e6 | 3.94e6
hob | 1 | 3.70e6 | 4.17e6 | 4.23e6
CG32373 | 1 | 3.49e6 | 4.00e6 | 3.92e6
CG42288 | 1 | 3.54e6 | 4.05e6 | 4.07e6
Etfb | 1 | 3.71e6 | 4.25e6 | 4.14e6
CG34342 | 1 | 3.53e6 | 4.00e6 | 4.02e6
CG34342 | 2 | 3.26e6 | 3.86e6 | 3.82e6
CG11374 | 1 | 3.56e6 | 4.01e6 | 4.09e6
Sec10 | 1 | 3.54e6 | 4.04e6 | 3.99e6
CG18540 | 1 | 3.44e6 | 3.78e6 | 3.98e6
alka | 1 | 3.46e6 | 3.90e6 | 3.97e6
mbm | 1 | 3.54e6 | 3.91e6 | 4.10e6
CG34396 | 1 | 3.39e6 | 3.87e6 | 3.76e6
CG34396 | 2 | 3.28e6 | 3.76e6 | 3.68e6
CG12498 | 1 | 3.44e6 | 3.97e6 | 3.83e6
salm | 1 | 3.57e6 | 4.23e6 | 3.88e6
Snmp1 | 1 | 3.32e6 | 3.86e6 | 3.74e6
CG4592 | 1 | 3.99e6 | 4.47e6 | 4.68e6
CG30161 | 1 | 3.54e6 | 4.05e6 | 3.97e6
Prosbeta7 | 1 | 3.24e6 | 3.74e6 | 3.68e6
Ir60d | 1 | 3.61e6 | 4.06e6 | 4.12e6
Gdap2 | 1 | 3.58e6 | 3.95e6 | 4.13e6
Gdap2 | 2 | 3.54e6 | 3.92e6 | 4.10e6
CG34050 (retired record) | 1 | 2.81e6 | 3.54e6 | 3.54e6
loh | 1 | 3.52e6 | 4.08e6 | 3.89e6
loh | 2 | 3.61e6 | 4.22e6 | 3.96e6
Vtld + CG42529 | 1 | 3.59e6 | 4.10e6 | 4.04e6
CG7304 | 1 | 3.62e6 | 4.23e6 | 3.96e6
CG12963 | 1 | 3.39e6 | 3.84e6 | 3.89e6
CG14907 + Mettl4 | 1 | 3.61e6 | 4.23e6 | 3.99e6
CG14907 + Mettl4 | 2 | 3.66e6 | 4.25e6 | 4.07e6
dpr1 | 1 | 3.64e6 | 4.13e6 | 4.08e6
dpr1 | 2 | 3.66e6 | 4.08e6 | 4.16e6
